Experimental data as given in patent US20150232570A1 (ONCOMED PHARMACEUTICALS, published 2015).
These are yes or no findings as the source states them, for the method shown. Some entries that bind do so weakly or less than the wild type.

T1: recombinant human NOTCH1 protein (human, UniProt P46531 1426-1731, limits assumed)
T1 construct: NOTCH1 proteins'
T1 sequence (looked up): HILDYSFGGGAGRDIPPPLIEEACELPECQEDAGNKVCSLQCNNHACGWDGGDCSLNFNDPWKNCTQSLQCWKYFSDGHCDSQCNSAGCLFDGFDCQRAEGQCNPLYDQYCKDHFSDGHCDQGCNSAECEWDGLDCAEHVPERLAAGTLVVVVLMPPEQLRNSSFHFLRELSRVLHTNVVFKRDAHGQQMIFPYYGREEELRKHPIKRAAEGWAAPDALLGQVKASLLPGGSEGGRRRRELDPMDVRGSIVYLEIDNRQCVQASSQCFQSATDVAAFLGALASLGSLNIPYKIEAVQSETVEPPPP


Columns and labels:
[1] = molecular target: T1, recombinant human NOTCH1 protein; test: ELISA of conditioned medium from HEK 293 cells co-transfected with H4 heavy chain and murine 52M51 light chain
[2] = molecular target: T1, recombinant human NOTCH1 protein; test: ELISA of conditioned medium from HEK293 cells co-transfected with 52M51-H4 and the light chain variant

| binding [1] | binding [2] | Binder |
| --- | --- | --- |
| binds |  | 52M51-H4 humanized heavy chain co-expressed with the murine 52M51 light chain (antibody, human IgG2, V domains shown) VH: QVQLVQSGAEVKKPGASVKISCKVSGYTLRGYWIEWVRQAPGKGLEWIGQILPGTGRTNYNEKFKGRVTMTADTSTDTAYMELSSLRSEDTAVYYCARFDGNYGYYAMDYWGQGTTVTVSS VL: QAVVTQESALTTSPGETVTLTCRSSTGAVTTSNYANWVQEKPDHLFTGLIGGTNNRAPGVPARFSGSLIGDKAALTITGAQTEDEAIYFCALWYSNHWVFGGGTKLTVLG |
|  | binds | humanized antibody 52M51-H4L3 (antibody, human IgG2, lambda, V domains shown, Human IgG2 heavy chain and lambda (IgLC1) light chain; also called OMP-52M51; ATCC PTA-9549) VH: QVQLVQSGAEVKKPGASVKISCKVSGYTLRGYWIEWVRQAPGKGLEWIGQILPGTGRTNYNEKFKGRVTMTADTSTDTAYMELSSLRSEDTAVYYCARFDGNYGYYAMDYWGQGTTVTVSS VL: SQAVVTQEPSLTVSPGGTVTLTCRSSTGAVTTSNYANWFQQKPGQAPRTLIGGTNNRAPGVPARFSGSLLGGKAALTLSGAQPEDEAEYYCALWYSNHWVFGGGTKLTVLG |
|  | binds | humanized antibody 52M51-H4L4 (antibody, human IgG2, lambda, V domains shown, Human IgG2 heavy chain and lambda (IgLC1) light chain) VH: QVQLVQSGAEVKKPGASVKISCKVSGYTLRGYWIEWVRQAPGKGLEWIGQILPGTGRTNYNEKFKGRVTMTADTSTDTAYMELSSLRSEDTAVYYCARFDGNYGYYAMDYWGQGTTVTVSS VL: SQTVVTQEPSFSVSPGGTVTLTCRSSTGAVTTSNYANWYQQTPGQAPRTLIGGTNNRAPGVPDRFSGSILGNKAALTITGAQADDESDYYCALWYSNHWVFGGGTKLTVLG |
